These are yes or no findings as the source states them, for the method shown. Binding seen in cells or lysates may run through a third protein. A yes stands for co-enrichment or nearness to the bait. Other partners may have been found.
B1: Ribonucleoprotein PTB-binding 1 (protein, UniProt Q8IY67 1-606)
chain: MAADVSVTHRPPLSPKSGAEVEAGDAAERRAPEEELPPLDPEEIRKRLEHTERQFRNRRKILIRGLPGDVTNQEVHDLLSDYELKYCFVDKYKGTAFVTLLNGEQAEAAINAFHQSRLRERELSVQLQPTDALLCVANLPPSLTQQQFEELVRPFGSLERCFLVYSERTGQSKGYGFAEYMKKDSAARAKSDLLGKPLGPRTLYVHWTDAGQLTPALLHSRCLCVDRLPPGFNDVDALCRALSAVHSPTFCQLACGQDGQLKGFAVLEYETAEMAEEAQQQADGLSLGGSHLRVSFCAPGPPGRSMLAALIAAQATALNRGKGLLPEPNILQLLNNLGPSASLQLLLNPLLHGSAGGKQGLLGAPPAMPLLNGPALSTALLQLALQTQGQKKPGILGDSPLGALQPGAQPANPLLGELPAGGGLPPELPPRRGKPPPLLPSVLGPAGGDREALGLGPPAAQLTPPPAPVGLRGSGLRGPLSHFYSGSPTSYFTSGLQAGLKQSHLSKAIGSSPLGSGEGLLGLSPGPNGHSHLLKVRAGGGDMQGWEAPAPQRPLTRPALPSVSRPHWAARNAALPTCCPRPSPAQKAAMWASTPRASAATTRTPT
B2: RNA-binding protein 12B (protein, UniProt Q8IXT5 1-1001)
chain: MAVVIRLLGLPFIAGPVDIRHFFTGLTIPDGGVHIIGGEIGEAFIIFATDEDARRAISRSGGFIKDSSVELFLSSKAEMQKTIEMKRTDRVGRGRPGSGTSGVDSLSNFIESVKEEASNSGYGSSINQDAGFHTNGTGHGNLRPRKTRPLKAENPYLFLRGLPYLVNEDDVRVFFSGLCVDGVIFLKHHDGRNNGDAIVKFASCVDASGGLKCHRSFMGSRFIEVMQGSEQQWIEFGGNAVKEGDVLRRSEEHSPPRGINDRHFRKRSHSKSPRRTRSRSPLGFYVHLKNLSLSIDERDLRNFFRGTDLTDEQIRFLYKDENRTRYAFVMFKTLKDYNTALSLHKTVLQYRPVHIDPISRKQMLKFIARYEKKRSGSLERDRPGHVSQKYSQEGNSGQKLCIYIRNFPFDVTKVEVQKFFADFLLAEDDIYLLYDDKGVGLGEALVKFKSEEQAMKAERLNRRRFLGTEVLLRLISEAQIQEFGVNFSVMSSEKMQARSQSRERGDHSHLFDSKDPPIYSVGAFENFRHQLEDLRQLDNFKHPQRDFRQPDRHPPEDFRHSSEDFRFPPEDFRHSPEDFRRPREEDFRRPSEEDFRRPWEEDFRRPPEDDFRHPREEDWRRPLEEDWRRPLEEDFRRSPTEDFRQLPEEDFRQPPEEDLRWLPEEDFRRPPEEDWRRPPEEDFRRPLQGEWRRPPEDDFRRPPEEDFRHSPEEDFRQSPQEHFRRPPQEHFRRPPPEHFRRPPPEHFRRPPPEHFRRPPPEHFRRPPPEHFRRPPPEHFRRPPQEHFRRPPQEHFRRSREEDFRHPPDEDFRGPPDEDFRHPPDEDFRSPQEEDFRCPSDEDFRQLPEEDLREAPEEDPRLPDNFRPPGEDFRSPPDDFRSHRPFVNFGRPEGGKFDFGKHNMGSFPEGRFMPDPKINCGSGRVTPIKIMNLPFKANVNEILDFFHGYRIIPDSVSIQYNEQGLPTGEAIVAMINYNEAMAAIKDLNDRPVGPRKVKLTLL
B3: Signal recognition particle 9 kDa protein (protein, UniProt P49458 1-86)
chain: MPQYQTWEEFSRAAEKLYLADPMKARVVLKYRHSDGNLCVKVTDDLVCLVYKTDQAQDVKKIEKFHSQLMRLMVAKEARNVTMETE
B4: Protein LTV1 homolog (protein, UniProt Q96GA3 1-475)
chain: MPHRKKKPFIEKKKAVSFHLVHRSQRDPLAADESAPQRVLLPTQKIDNEERRAEQRKYGVFFDDDYDYLQHLKEPSGPSELIPSSTFSAHNRREEKEETLVIPSTGIKLPSSVFASEFEEDVGLLNKAAPVSGPRLDFDPDIVAALDDDFDFDDPDNLLEDDFILQANKATGEEEGMDIQKSENEDDSEWEDVDDEKGDSNDDYDSAGLLSDEDCMSVPGKTHRAIADHLFWSEETKSRFTEYSMTSSVMRRNEQLTLHDERFEKFYEQYDDDEIGALDNAELEGSIQVDSNRLQEVLNDYYKEKAENCVKLNTLEPLEDQDLPMNELDESEEEEMITVVLEEAKEKWDCESICSTYSNLYNHPQLIKYQPKPKQIRISSKTGIPLNVLPKKGLTAKQTERIQMINGSDLPKVSTQPRSKNESKEDKRARKQAIKEERKERRVEKKANKLAFKLEKRRQEKELLNLKKNVEGLKL
B5: Ras-GTPase activating protein SH3 domain-binding protein 2 (protein, UniProt Q9UN86 1-482)
chain: MVMEKPSPLLVGREFVRQYYTLLNKAPEYLHRFYGRNSSYVHGGVDASGKPQEAVYGQNDIHHKVLSLNFSECHTKIRHVDAHATLSDGVVVQVMGLLSNSGQPERKFMQTFVLAPEGSVPNKFYVHNDMFRYEDEVFGDSEPELDEESEDEVEEEQEERQPSPEPVQENANSGYYEAHPVTNGIEEPLEESSHEPEPEPESETKTEELKPQVEEKNLEELEEKSTTPPPAEPVSLPQEPPKAFSWASVTSKNLPPSGTVSSSGIPPHVKAPVSQPRVEAKPEVQSQPPRVREQRPRERPGFPPRGPRPGRGDMEQNDSDNRRIIRYPDSHQLFVGNLPHDIDENELKEFFMSFGNVVELRINTKGVGGKLPNFGFVVFDDSEPVQRILIAKPIMFRGEVRLNVEEKKTRAARERETRGGGDDRRDIRRNDRGPGGPRGIVGGGMMRDRDGRGPPPRGGMAQKLGSGRGTGQMEGRFTGQRR
B6: Phosphate carrier protein, mitochondrial (protein, UniProt Q00325 50-362)
chain: AVEEQYSCDYGSGRFFILCGLGGIISCGTTHTALVPLDLVKCRMQVDPQKYKGIFNGFSVTLKEDGVRGLAKGWAPTFLGYSMQGLCKFGFYEVFKVLYSNMLGEENTYLWRTSLYLAASASAEFFADIALAPMEAAKVRIQTQPGYANTLRDAAPKMYKEEGLKAFYKGVAPLWMRQIPYTMMKFACFERTVEALYKFVVPKPRSECSKPEQLVVTFVAGYIAGVFCAIVSHPADSVVSVLNKEKGSSASLVLKRLGFKGVWKGLFARIIMIGTLTALQWFIYDSVKVYFRLPRPPPPEMPESLKKKLGLTQ
B7: Isoform 2 of Caprin-1 (protein, UniProt Q14444-2 1-694)
chain: MPSATSHSGSGSKSSGPPPPSGSSGSEAAAGAGAAAPASQHPATGTGAVQTEAMKQILGVIDKKLRNLEKKKGKLDDYQERMNKGERLNQDQLDAVSKYQEVTNNLEFAKELQRSFMALSQDIQKTIKKTARREQLMREEAEQKRLKTVLELQYVLDKLGDDEVRTDLKQGLNGVPILSEEELSLLDEFYKLVDPERDMSLRLNEQYEHASIHLWDLLEGKEKPVCGTTYKVLKEIVERVFQSNYFDSTHNHQNGLCEEEEAASAPAVEDQVPEAEPEPAEEYTEQSEVESTEYVNRQFMAETQFTSGEKEQVDEWTVETVEVVNSLQQQPQAASPSVPEPHSLTPVAQADPLVRRQRVQDLMAQMQGPYNFIQDSMLDFENQTLDPAIVSAQPMNPTQNMDMPQLVCPPVHSESRLAQPNQVPVQPEATQVPLVSSTSEGYTASQPLYQPSHATEQRPQKEPIDQIQATISLNTDQTTASSSLPAASQPQVFQAGTSKPLHSSGINVNAAPFQSMQTVFNMNAPVPPVNEPETLKQQNQYQASYNQSFSSQPHQVEQTELQQEQLQTVVGTYHGSPDQSHQVTGNHQQPPQQNTGFPRSNQPYYNSRGVSRGGSRGARGLMNGYRGPANGFRGGYDGYRPSFSNTPNSGYTQSQFSAPRDYSGYQRDGYQQNFKRGSGQSGPRGAPRGNILWW
B8: THO complex subunit 3 (protein, UniProt Q96J01 1-351)
chain: MAVPAAAMGPSALGQSGPGSMAPWCSVSSGPSRYVLGMQELFRGHSKTREFLAHSAKVHSVAWSCDGRRLASGSFDKTASVFLLEKDRLVKENNYRGHGDSVDQLCWHPSNPDLFVTASGDKTIRIWDVRTTKCIATVNTKGENINICWSPDGQTIAVGNKDDVVTFIDAKTHRSKAEEQFKFEVNEISWNNDNNMFFLTNGNGCINILSYPELKPVQSINAHPSNCICIKFDPMGKYFATGSADALVSLWDVDELVCVRCFSRLDWPVRTLSFSHDGKMLASASEDHFIDIAEVETGDKLWEVQCESPTFTVAWHPKRPLLAFACDDKDGKYDSSREAGTVKLFGLPNDS
B9: Splicing factor 1, isoform CRA_d (protein, UniProt Q15637 1-639)
chain: MATGANATPLDFPSKKRKRSRWNQDTMEQKTVIPGMPTVIPPGLTREQERAYIVQLQIEDLTRKLRTGDLGIPPNPEDRSPSPEPIYNSEGKRLNTREFRTRKKLEEERHNLITEMVALNPDFKPPADYKPPATRVSDKVMIPQDEYPEINFVGLLIGPRGNTLKNIEKECNAKIMIRGKGSVKEGKVGRKDGQMLPGEDEPLHALVTANTMENVKKAVEQIRNILKQGIETPEDQNDLRKMQLRELARLNGTLREDDNRILRPWQSSETRSITNTTVCTKCGGAGHIASDCKFQRPGDPQSAQDKARMDKEYLSLMAELGEAPVPASVGSTSGPATTPLASAPRPAAPANNPPPPSLMSTTQSRPPWMNSGPSESRPYHGMHGGGPGGPGGGPHSFPHPLPSLTGGHGGHPMQHNPNGPPPPWMQPPPPPMNQGPHPPGHHGPPPMDQYLGSTPVGSGVYRLHQGKGMMPPPPMGMMPPPPPPPSGQPPPPPSGPLPPWQQQQQQPPPPPPPSSSMASSTPLPWQQNTTTTTTSAGTGSIPPWQQQQAAAAASPGAPQMQGNPTMVPLPPGVQPPLPPGAPPPPPPPPPGSAGMMYAPPPPPPPPMDPSNFVTMMGMGVAGMPPFGMPPAPPPPPPQN

The chains behind the UniProt entries cited, without tags or fusion partners.
UniProt P03083: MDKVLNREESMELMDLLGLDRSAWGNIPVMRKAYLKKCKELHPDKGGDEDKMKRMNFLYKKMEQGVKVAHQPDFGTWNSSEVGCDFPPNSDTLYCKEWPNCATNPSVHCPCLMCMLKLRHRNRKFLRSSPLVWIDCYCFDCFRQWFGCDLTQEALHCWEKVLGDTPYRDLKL
UniProt P03072: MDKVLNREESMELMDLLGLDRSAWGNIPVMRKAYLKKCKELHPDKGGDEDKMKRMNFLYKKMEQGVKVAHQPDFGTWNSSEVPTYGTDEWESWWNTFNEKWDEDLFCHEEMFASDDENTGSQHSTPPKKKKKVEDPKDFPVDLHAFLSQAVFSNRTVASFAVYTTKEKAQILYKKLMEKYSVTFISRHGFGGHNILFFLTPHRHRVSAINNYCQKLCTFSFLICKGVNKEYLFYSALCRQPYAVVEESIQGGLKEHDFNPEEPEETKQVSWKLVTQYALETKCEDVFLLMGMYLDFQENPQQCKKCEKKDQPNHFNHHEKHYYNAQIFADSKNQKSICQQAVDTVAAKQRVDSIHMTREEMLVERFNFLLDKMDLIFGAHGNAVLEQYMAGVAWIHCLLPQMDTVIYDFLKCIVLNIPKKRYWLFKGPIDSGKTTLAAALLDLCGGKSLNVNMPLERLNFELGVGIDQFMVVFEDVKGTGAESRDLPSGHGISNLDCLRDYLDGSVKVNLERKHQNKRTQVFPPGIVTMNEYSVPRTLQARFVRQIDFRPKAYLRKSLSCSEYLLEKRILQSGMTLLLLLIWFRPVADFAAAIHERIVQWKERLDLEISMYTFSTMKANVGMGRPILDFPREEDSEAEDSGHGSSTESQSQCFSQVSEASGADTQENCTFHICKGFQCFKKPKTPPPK

Assays:
[1] = target: T7-2xStrep-JCV Sm t-Ag (JC virus (JCV)) (UniProt P03083); assay: affinity purification with mass spectrometry
[2] = target: T7-2xStrep-JCV LT-Ag (JC virus (JCV)) (UniProt P03072); assay: affinity purification with mass spectrometry

| Binder | binding [1] | binding [2] |
| --- | --- | --- |
| B1 | binds | binds |
| B2 | binds | binds |
| B3 | binds | binds |
| B4 | binds | binds |
| B5 | binds | binds |
| B6 | binds | binds |
| B7 | binds | binds |
| B8 | binds | binds |
| B9 | binds | binds |

Source: publication PMC7594058
